Measurements reported in PubChem BioAssay AID1159584 (Peter MacCallum Cancer Centre, 2016)

Aim: 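Knock-downs that harm CDH1-null cells more than parental MCF10A cells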 (primary screen)
Cell system: human MCF10A breast epithelial cells, parental and CDH1-null
Reagent: siRNA against human genes
Detection: 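ATP luminescence (CellTiter-Glo) viability per line relative to mean mock wells over all plates, and the ratio of CDH1-null to parental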
Direction: CDH1-null / parental viability ratio: higher = CDH1-null cells survive relatively better than parental; CDH1-null viability vs mock: higher = more viable CDH1-null cells; parental viability vs mock: higher = more viable parental cells
This is a random part of about 18,000 deposited reagents. The record does not give: the amount of reagent, the time to read-out.

target gene | CDH1-null / parental viability ratio | CDH1-null viability vs mock (fraction of mock) | parental viability vs mock (fraction of mock)
DNASE1L1 (GeneID 1774) | 1.09 | 0.83 | 0.76
RTL10 (GeneID 79680) | 1.17 | 0.21 | 0.18
ATP5F1C (GeneID 509) | 0.97 | 0.76 | 0.78
GALNT14 (GeneID 79623) | 1.26 | 1.08 | 0.86
ERCC4 (GeneID 2072) | 0.97 | 0.74 | 0.76
RARB (GeneID 5915) | 0.74 | 0.61 | 0.82
ZPR1 (GeneID 8882) | 1.19 | 0.93 | 0.78
THRSP (GeneID 7069) | 0.86 | 0.62 | 0.72
PLEKHG1 (GeneID 57480) | 1.28 | 0.59 | 0.46
PSMD6 (GeneID 9861) | 1 | 0.26 | 0.26
S100A6 (GeneID 6277) | 0.97 | 0.85 | 0.88
NRL (GeneID 4901) | 1.06 | 0.92 | 0.87
MANBAL (GeneID 63905) | 1.02 | 0.82 | 0.8
PAXIP1 (GeneID 22976) | 1.1 | 1.1 | 1
PHRF1 (GeneID 57661) | 0.97 | 0.6 | 0.62
CCDC125 (GeneID 202243) | 1.22 | 0.67 | 0.55
REST (GeneID 5978) | 0.92 | 0.44 | 0.48
OR9K2 (GeneID 441639) | 1.64 | 0.72 | 0.44
PRRT3 (GeneID 285368) | 0.74 | 0.55 | 0.74
NSMAF (GeneID 8439) | 1 | 0.96 | 0.96
FAM220A (GeneID 84792) | 1.06 | 1 | 0.94
HHAT (GeneID 55733) | 0.72 | 0.61 | 0.85
DPRX (GeneID 503834) | 0.92 | 0.72 | 0.78
ATE1 (GeneID 11101) | 0.87 | 1 | 1.15
PRICKLE3 (GeneID 4007) | 0.98 | 0.92 | 0.94
ATF3 (GeneID 467) | 1.12 | 0.37 | 0.33
SPOCK2 (GeneID 9806) | 1.2 | 0.84 | 0.7
FDPS (GeneID 2224) | 1.34 | 1.15 | 0.86
TET1 (GeneID 80312) | 0.94 | 0.77 | 0.82
RTN1 (GeneID 6252) | 1.25 | 0.65 | 0.52
ZNF599 (GeneID 148103) | 0.69 | 0.64 | 0.93
SNRK (GeneID 54861) | 0.77 | 0.56 | 0.73
IPO11 (GeneID 51194) | 0.95 | 0.36 | 0.38
TIMM22 (GeneID 29928) | 0.92 | 0.94 | 1.02
DMRTA1 (GeneID 63951) | 1.18 | 0.52 | 0.44
EVC2 (GeneID 132884) | 0.93 | 0.5 | 0.54
CCL27 (GeneID 10850) | 1.01 | 0.86 | 0.85
ELP5 (GeneID 23587) | 1.21 | 0.92 | 0.76
DEFB103A (GeneID 414325) | 0.89 | 0.65 | 0.73
DACH1 (GeneID 1602) | 1.32 | 1 | 0.76
RBM19 (GeneID 9904) | 1.03 | 0.68 | 0.66
DDX5 (GeneID 1655) | 0.98 | 1 | 1.02
DPP4 (GeneID 1803) | 1.02 | 0.86 | 0.84
ZYX (GeneID 7791) | 0.95 | 0.8 | 0.84
ATP5MG (GeneID 10632) | 1.33 | 0.6 | 0.45
UNC5B (GeneID 219699) | 1.01 | 1.04 | 1.03
GGPS1 (GeneID 9453) | 0.97 | 1.12 | 1.15
TRIM7 (GeneID 81786) | 0.97 | 0.93 | 0.96
RNF145 (GeneID 153830) | 0.87 | 0.92 | 1.06
GPRC5A (GeneID 9052) | 0.79 | 0.66 | 0.84
KRTAP21-1 (GeneID 337977) | 1.2 | 0.77 | 0.64
ALG6 (GeneID 29929) | 1 | 0.88 | 0.88
CRHBP (GeneID 1393) | 0.94 | 0.65 | 0.69
FAM169BP (GeneID 283777) | 1.15 | 0.76 | 0.66
SRRT (GeneID 51593) | 1.16 | 0.86 | 0.74
ARHGEF15 (GeneID 22899) | 1.21 | 1.02 | 0.84
ZFP30 (GeneID 22835) | 1.21 | 1.17 | 0.97
SUZ12 (GeneID 23512) | 1.2 | 0.9 | 0.75
EBF2 (GeneID 64641) | 1.19 | 0.57 | 0.48
CRNN (GeneID 49860) | 0.88 | 0.44 | 0.5
LCMT2 (GeneID 9836) | 1.21 | 1.1 | 0.91
QPRT (GeneID 23475) | 1.64 | 0.97 | 0.59
POLR2G (GeneID 5436) | 1.14 | 0.5 | 0.44
GUCY1B1 (GeneID 2983) | 0.84 | 0.69 | 0.82
UST (GeneID 10090) | 1.03 | 0.8 | 0.78
SLC25A18 (GeneID 83733) | 0.89 | 0.87 | 0.98
SERPIND1 (GeneID 3053) | 1.2 | 0.72 | 0.6
CHCHD2 (GeneID 51142) | 0.72 | 0.58 | 0.8
OR4N3P (GeneID 390539) | 0.98 | 0.92 | 0.94
HTR3D (GeneID 200909) | 1.05 | 0.65 | 0.62
FAM111B (GeneID 374393) | 1.04 | 0.96 | 0.92
CNGA1 (GeneID 1259) | 1.42 | 0.88 | 0.62
C1orf54 (GeneID 79630) | 1.15 | 0.94 | 0.82
RPL26 (GeneID 6154) | 1.27 | 0.38 | 0.3
ZNF507 (GeneID 22847) | 1 | 0.78 | 0.78
LIX1 (GeneID 167410) | 0.8 | 0.88 | 1.1
TCL6 (GeneID 27004) | 0.97 | 0.68 | 0.7
CFAP65 (GeneID 255101) | 0.98 | 0.79 | 0.81
SERPINB10 (GeneID 5273) | 1.26 | 0.86 | 0.68
CCL4L2 (GeneID 9560) | 1.22 | 1.17 | 0.96
HS3ST3B1 (GeneID 9953) | 0.74 | 0.78 | 1.06
HUS1 (GeneID 3364) | 0.86 | 0.77 | 0.9
ZNF83 (GeneID 55769) | 1.17 | 0.94 | 0.8
RPS19BP1 (GeneID 91582) | 0.93 | 0.7 | 0.75
XKR7 (GeneID 343702) | 0.93 | 1.04 | 1.12
CD180 (GeneID 4064) | 1.34 | 0.51 | 0.38
UHRF1 (GeneID 29128) | 0.93 | 0.77 | 0.83

Reformatted: results already given.
target gene,CDH1-null / parental viability ratio,CDH1-null viability vs mock (fraction of mock),parental viability vs mock (fraction of mock)
NRL (GeneID 4901),1.06,0.92,0.87
MANBAL (GeneID 63905),1.02,0.82,0.8
PAXIP1 (GeneID 22976),1.1,1.1,1
PHRF1 (GeneID 57661),0.97,0.6,0.62
CCDC125 (GeneID 202243),1.22,0.67,0.55
REST (GeneID 5978),0.92,0.44,0.48
